Results: patent US20110230367A1 (SNU R&DB FOUNDATION, priority 2009, published 2011)

Assay: general procedure: peptide synthesis; link amide MBHA resin (0.64 mmol/g)
Settings: whole synthesis, scale 32 μmol

With Ac-LKKLLKLLKKLLKLAG the isolated mass was 4.8 mg and the isolated yield was “yield 8%”.
